We go through seven molecules from patent publication US20250352661A1 (MYTHIC THERAPEUTICS, published 2025).

Protein sequences, listed by entry. Tags and fused reporters are not part of them. Residues count along the entry.
UniProt Q8TF66, residues 22-538: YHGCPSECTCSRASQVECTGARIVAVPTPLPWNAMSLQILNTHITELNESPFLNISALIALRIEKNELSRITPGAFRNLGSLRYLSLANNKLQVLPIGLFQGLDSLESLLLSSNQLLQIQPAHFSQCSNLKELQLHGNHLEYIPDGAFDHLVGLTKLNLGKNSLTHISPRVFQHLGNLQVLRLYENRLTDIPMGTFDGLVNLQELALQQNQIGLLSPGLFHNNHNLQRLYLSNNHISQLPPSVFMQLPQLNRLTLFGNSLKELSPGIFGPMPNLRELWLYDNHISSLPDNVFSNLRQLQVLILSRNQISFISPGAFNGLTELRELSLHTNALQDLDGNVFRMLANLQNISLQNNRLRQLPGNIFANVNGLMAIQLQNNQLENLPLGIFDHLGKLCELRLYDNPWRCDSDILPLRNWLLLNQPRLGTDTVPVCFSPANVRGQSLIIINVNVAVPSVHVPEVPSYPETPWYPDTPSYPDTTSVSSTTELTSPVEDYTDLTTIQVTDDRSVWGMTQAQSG

These are yes or no findings as the source states them, for the method shown. Some binding calls cover weakened binding; strength is not graded here.

Experiment [1] concerns the target Human LRRC15 Protein, His Tag (Acro Biosystems) (human) (UniProt Q8TF66). In words: BLI (Octet), Ab on anti-human Fc sensor, 50 nM LRRC15 at pH 7.4; dissociation at pH 7.4 or 5.4.
For experiment [2] the target is unchanged. In words: BLI (Octet RED 96e), supernatant on anti-human Fc sensor, 50 nM LRRC15-His, association pH 7.4, dissociation pH 7.4 or 5.4.
Experiment [3] has the same target. Put plainly: BLI; dissociation pH 7.4 black, pH 5.4 grey [1/2); D00006 FIG. 1E (1/2].

B1: MYT8510 (antibody, V domains shown)
VH: QQQLVESGGGLVKPGASLTLTCKASGFSFSGSYWICWVRQAPGKGLEWIGCHNGGSHDHTYYASWAKGRFTISKASSTTVTLQKTSLTAADTATYFCASDTSYTAYGNFYFNLWGPGTLVTVSS
VL: AQVLTQTASPVSAAVGGTVTINCQSSQSVLNNNWLAWYQQKPGQPPKLLIYDASSLASGVPSRFKGSGSGTQFTLTISDLESDDAATYYCQGEFSCGSADCNAFGGGTEVVVKG
In the case of B1, in experiment [1], the binding entry is listed as “binds”.

B2: MYT9768 (antibody, V domains shown)
VH: QQQLVESGGGLVKPGASLTLTCKASGFSFSGHYWICWVRQAPGKGLEWIGCIHGGSRDITYYASWAKGRFTISKASSTTVTLQKTSLTAADTATYFCASDTSYTAYGNFYFNLWGPGTLVTVSS
VL: AQVLTQTASPVSAAVGGTVTINCQSSQSVLNNNWLAWYQQKPGQPPKLLIYDASSLASGVPSRFKGSGSGTQFTLTISDLESDDAATYYCQGEFSCGSADCNAFGGGTEVVVKG
With B2, in experiment [1], the binding result is “binds”.

B3: MYT9767 (antibody, V domains shown)
VH: QQQLVESGGGLVKPGASLTLTCKASGFSFSGHYWICWVRQAPGKGLEWIGCIHGGSHDITYYASWAKGRFTISKASSTTVTLQKTSLTAADTATYFCASDTSYTAYGNFYFNLWGPGTLVTVSS
VL: AQVLTQTASPVSAAVGGTVTINCQSSQSVLNNNWLAWYQQKPGQPPKLLIYDASSLASGVPSRFKGSGSGTQFTLTISDLESDDAATYYCQGEFSCGSADCNAFGGGTEVVVKG
As to B3, the binding result in experiment [1] is “binds”.

B4: MYT9769 (antibody, V domains shown)
VH: QQQLVESGGGLVKPGASLTLTCKASGFSFSGHYWICWVRQAPGKGLEWIGCIHGGSLDQTYYASWAKGRFTISKASSTTVTLQKTSLTAADTATYFCASDTSYTAYGNFYFNLWGPGTLVTVSS
VL: AQVLTQTASPVSAAVGGTVTINCQSSQSVLNNNWLAWYQQKPGQPPKLLIYDASSLASGVPSRFKGSGSGTQFTLTISDLESDDAATYYCQGEFSCGSADCNAFGGGTEVVVKG
Consider B4, for which the binding result in experiment [1] was “binds”.

B5: MYT9765 (antibody, V domains shown)
VH: QQQLVESGGGLVKPGASLTLTCKASGFSFSGSYWICWVRQAPGKGLEWIGCIHGGSRDITYYASWAKGRFTISKASSTTVTLQKTSLTAADTATYFCASDTSYTAYGNFYFNLWGPGTLVTVSS
VL: AQVLTQTASPVSAAVGGTVTINCQSSQSVLNNNWLAWYQQKPGQPPKLLIYDASSLASGVPSRFKGSGSGTQFTLTISDLESDDAATYYCQGEFSCGSADCNAFGGGTEVVVKG
As to B5, the binding entry in experiment [1] is “binds”.

B6: MYT6090 (antibody, V domains shown)
VH: QEQLEESGGDLVKPGASLTLTCTASGLDFRRTNYIHWVRQAPGKGLEWIGSIYIADVVHYYASWAKGRFTFSKTSSTTVTLQMTSLTAADTATYFCARGADGGFVYGMDLWGPGTLVTVSS
VL: DVVMTQTPASVSEPVGGTVTIKCQASQSIGNYLSWYQQKPGQRPKRLIYSASTLPSGVPSRFKGAGSGTEFTLTISDLESADAATYYCQNNYWLAGYGHPFGGGTEVVVK
For the molecule B6, the binding result in experiment [2] and in experiment [3] was “binds” in each case.

B7: MYT6091 (antibody, V domains shown)
VH: QEQLEESGGDLVKPGASLTLTCTASGLDFRRTNYISWVRQAPGKGLEWIGHIYIADVVHYYASWAKGRFTFSKTSSTTVTLQMTSLTAADTATYFCARGADGGFVYGMDLWGPGTLVTVSS
VL: DVVMTQTPASVSEPVGGTVTIKCQASQSIGNYLSWYQQKPGQRPKRLIYSASTLPSGVPSRFKGAGSGTEFTLTISDLESADAATYYCQNNYWLAGYGHPFGGGTEVVVK
As for B7, the binding entry in experiment [2] and in experiment [3] was “binds” throughout.
